Results taken from PMC11139843.
Results are given in words; binding and its absence hold for the method and conditions named. Binding seen in cells or lysates may run through a third protein. Some entries that bind do so weakly or less than the wild type. Sequences can lack the tags named with a protein.

Sequences of proteins named here, by UniProt entry; tags and fusion partners are left off.
UniProt P18266: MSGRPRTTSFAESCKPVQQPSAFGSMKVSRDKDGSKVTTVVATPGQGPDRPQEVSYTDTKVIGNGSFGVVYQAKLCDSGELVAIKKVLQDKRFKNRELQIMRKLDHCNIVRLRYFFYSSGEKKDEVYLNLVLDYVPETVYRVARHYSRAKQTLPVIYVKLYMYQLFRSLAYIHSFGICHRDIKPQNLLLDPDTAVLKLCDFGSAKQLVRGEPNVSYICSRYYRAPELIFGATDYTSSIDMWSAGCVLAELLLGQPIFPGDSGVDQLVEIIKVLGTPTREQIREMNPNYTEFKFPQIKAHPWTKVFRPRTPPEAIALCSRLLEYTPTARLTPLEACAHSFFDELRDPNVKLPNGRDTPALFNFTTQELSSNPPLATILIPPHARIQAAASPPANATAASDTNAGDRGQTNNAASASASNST
UniProt Q09472: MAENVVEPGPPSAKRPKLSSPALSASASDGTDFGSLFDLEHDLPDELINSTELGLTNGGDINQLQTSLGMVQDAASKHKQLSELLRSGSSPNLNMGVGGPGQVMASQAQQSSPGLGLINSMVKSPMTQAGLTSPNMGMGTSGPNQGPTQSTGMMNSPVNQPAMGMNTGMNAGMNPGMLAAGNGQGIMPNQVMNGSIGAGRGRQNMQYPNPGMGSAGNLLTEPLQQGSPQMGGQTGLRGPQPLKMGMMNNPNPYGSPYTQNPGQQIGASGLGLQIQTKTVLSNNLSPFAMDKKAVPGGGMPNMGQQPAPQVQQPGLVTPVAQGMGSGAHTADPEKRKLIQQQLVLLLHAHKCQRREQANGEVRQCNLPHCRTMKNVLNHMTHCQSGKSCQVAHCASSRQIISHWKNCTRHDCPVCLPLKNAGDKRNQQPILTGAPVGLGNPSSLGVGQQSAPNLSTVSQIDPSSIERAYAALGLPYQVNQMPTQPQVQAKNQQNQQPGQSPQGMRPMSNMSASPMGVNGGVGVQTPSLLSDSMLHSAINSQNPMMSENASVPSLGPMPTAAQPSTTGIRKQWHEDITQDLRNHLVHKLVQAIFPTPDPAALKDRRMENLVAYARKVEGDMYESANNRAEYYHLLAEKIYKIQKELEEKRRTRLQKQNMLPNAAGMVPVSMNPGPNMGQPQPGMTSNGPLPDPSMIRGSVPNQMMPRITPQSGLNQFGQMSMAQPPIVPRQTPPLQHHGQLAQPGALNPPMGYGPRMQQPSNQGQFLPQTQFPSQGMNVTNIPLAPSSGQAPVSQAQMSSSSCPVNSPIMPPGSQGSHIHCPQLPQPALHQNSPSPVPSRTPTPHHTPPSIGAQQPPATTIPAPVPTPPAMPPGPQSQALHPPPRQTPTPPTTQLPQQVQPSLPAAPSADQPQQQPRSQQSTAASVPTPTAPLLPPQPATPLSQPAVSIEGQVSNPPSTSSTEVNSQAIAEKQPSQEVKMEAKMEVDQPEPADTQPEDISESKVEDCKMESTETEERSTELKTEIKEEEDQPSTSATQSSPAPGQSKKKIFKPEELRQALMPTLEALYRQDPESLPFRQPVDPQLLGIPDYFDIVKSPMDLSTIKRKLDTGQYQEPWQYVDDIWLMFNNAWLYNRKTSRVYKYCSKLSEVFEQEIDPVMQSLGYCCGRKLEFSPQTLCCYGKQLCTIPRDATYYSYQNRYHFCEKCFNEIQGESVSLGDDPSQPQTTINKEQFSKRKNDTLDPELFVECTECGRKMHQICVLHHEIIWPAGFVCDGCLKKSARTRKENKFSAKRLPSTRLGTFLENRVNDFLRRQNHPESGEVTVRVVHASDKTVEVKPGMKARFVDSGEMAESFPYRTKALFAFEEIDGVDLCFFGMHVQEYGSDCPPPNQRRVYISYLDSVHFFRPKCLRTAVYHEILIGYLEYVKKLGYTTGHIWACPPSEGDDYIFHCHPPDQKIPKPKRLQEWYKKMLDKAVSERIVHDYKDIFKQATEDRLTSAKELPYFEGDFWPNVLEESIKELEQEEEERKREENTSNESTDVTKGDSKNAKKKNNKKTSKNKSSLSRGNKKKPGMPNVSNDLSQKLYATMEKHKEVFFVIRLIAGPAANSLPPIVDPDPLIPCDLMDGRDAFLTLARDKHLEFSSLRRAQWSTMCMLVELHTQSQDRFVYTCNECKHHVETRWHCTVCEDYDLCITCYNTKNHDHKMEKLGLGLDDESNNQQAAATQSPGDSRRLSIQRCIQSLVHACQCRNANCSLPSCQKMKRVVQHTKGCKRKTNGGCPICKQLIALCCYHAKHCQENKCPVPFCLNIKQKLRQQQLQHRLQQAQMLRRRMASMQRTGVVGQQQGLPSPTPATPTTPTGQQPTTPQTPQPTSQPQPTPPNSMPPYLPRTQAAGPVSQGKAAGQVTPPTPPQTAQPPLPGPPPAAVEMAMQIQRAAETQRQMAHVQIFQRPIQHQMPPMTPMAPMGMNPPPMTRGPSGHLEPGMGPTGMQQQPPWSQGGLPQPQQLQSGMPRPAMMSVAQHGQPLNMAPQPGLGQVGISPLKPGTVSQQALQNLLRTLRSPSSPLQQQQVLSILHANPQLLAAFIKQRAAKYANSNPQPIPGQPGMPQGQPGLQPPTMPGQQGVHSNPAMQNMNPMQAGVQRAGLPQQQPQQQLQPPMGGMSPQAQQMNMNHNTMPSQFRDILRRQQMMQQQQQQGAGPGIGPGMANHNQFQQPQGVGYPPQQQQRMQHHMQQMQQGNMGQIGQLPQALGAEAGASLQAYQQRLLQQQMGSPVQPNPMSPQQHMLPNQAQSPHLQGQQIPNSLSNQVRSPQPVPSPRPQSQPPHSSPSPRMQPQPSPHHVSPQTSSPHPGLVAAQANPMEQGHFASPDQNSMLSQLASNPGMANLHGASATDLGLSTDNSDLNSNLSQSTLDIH
UniProt O35800: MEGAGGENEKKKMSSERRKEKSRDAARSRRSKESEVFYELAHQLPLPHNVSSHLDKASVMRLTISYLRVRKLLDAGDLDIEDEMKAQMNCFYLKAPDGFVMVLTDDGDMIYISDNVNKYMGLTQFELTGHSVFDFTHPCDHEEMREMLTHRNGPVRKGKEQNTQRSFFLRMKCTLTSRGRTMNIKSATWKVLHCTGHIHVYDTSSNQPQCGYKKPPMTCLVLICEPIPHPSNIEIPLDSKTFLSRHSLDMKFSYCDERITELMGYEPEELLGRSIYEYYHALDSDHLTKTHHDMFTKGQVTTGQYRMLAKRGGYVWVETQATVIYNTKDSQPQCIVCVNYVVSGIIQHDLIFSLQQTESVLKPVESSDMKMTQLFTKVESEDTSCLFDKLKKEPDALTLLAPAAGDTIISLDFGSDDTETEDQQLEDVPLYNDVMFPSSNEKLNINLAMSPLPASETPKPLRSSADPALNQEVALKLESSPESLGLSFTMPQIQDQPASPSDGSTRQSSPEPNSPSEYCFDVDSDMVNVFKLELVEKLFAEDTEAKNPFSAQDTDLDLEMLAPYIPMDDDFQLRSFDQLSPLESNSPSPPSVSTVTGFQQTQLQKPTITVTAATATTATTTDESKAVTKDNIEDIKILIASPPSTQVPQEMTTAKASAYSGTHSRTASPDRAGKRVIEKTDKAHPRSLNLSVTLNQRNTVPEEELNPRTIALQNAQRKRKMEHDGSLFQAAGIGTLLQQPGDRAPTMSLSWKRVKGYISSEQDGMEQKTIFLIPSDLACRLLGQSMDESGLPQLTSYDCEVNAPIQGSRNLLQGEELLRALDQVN

T1: Four-and-a-half LIM domains protein 2 (FHL2), DDK-tagged, expressed in NRK-52E cells (UniProt O35115)
T1 sequence: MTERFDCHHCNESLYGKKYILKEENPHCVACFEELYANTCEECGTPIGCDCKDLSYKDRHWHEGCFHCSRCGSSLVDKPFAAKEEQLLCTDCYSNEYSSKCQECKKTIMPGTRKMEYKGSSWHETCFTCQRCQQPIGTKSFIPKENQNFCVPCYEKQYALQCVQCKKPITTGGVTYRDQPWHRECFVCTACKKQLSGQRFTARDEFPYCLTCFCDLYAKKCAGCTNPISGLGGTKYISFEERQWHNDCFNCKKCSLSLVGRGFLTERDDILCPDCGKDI

T2: Four-and-a-half LIM domains protein 2 (FHL2), DDK-tagged, expressed in HEK293 cells (UniProt O35115)
T2 sequence: T1 sequence

B1: β-catenin (protein, UniProt Q9WU82 1-781)
chain: MATQADLMELDMAMEPDRKAAVSHWQQQSYLDSGIHSGATTTAPSLSGKGNPEEEDVDTSQVLYEWEQGFSQSFTQEQVADIDGQYAMTRAQRVRAAMFPETLDEGMQIPSTQFDAAHPTNVQRLAEPSQMLKHAVVNLINYQDDAELATRAIPELTKLLNDEDQVVVNKAAVMVHQLSKKEASRHAIMRSPQMVSAIVRTMQNTNDVETARCTAGTLHNLSHHREGLLAIFKSGGIPALVKMLGSPVDSVLFYAITTLHNLLLHQEGAKMAVRLAGGLQKMVALLNKTNVKFLAITTDCLQILAYGNQESKLIILASGGPQALVNIMRTYTYEKLLWTTSRVLKVLSVCSSNKPAIVEAGGMQALGPHLTDPSQRLVQNCLWTLRNLSDAATKQEGMEGLLGTLVQLLGSDDINVVTCAAGILSNLTCNNYKNKMMVCQVGGIEALVRTVLRAGDREDITEPAICALRHLTSRHQEAEMAQNAVRLHYGLPVVVKLLHPPSHWPLIKATVGLIRNLALCPANHAPLREQGAIPRLVQLLVRAHQDTQRRTSMGGTQQQFVEGVRMEEIVEGCTGALHILARDVHNRIVIRGLNTIPLFVQLLYSPIENIQRVAAGVLCELAQDKEAAEAIEAEGATAPLTELLHSRNEGVATYAAAVLFRMSEDKPQDYKKRLSVELTSSLFRTEPMAWNETADLGLDIGAQGEALGYRQDDPSYRSFHSGGYGQDALGMDPMMEHEMGGHHPGADYPVDGLPDLGHAQDLMDGLPPGDSNQLAWFDTDL
B2: Four-and-a-half LIM domains protein 2 (FHL2), DDK-tagged, expressed in NRK-52E cells (protein, UniProt O35115 1-279)
chain: T1 sequence
B3: Four-and-a-half LIM domains protein 2 (FHL2), DDK-tagged, expressed in HEK293 cells (protein, UniProt O35115 1-279)
chain: T1 sequence

Assays:
[1] = target: T1, Four-and-a-half LIM domains protein 2 (FHL2), DDK-tagged, expressed in NRK-52E cells; experiment: co-IP; NRK-52E cells transfected with pFHL2 or empty vector pcDNA3 for 6 h; lysate precleared with normal IgG, incubated with anti-FHL2 (or anti-GSK-3β) at 4 °C overnight, protein A/G Plus-agarose 4 h; immunoblot
[2] = target: T2, Four-and-a-half LIM domains protein 2 (FHL2), DDK-tagged, expressed in HEK293 cells; experiment: co-IP; HEK293 cells co-transfected with myc-tagged p300 and DDK-tagged FHL2 or pcDNA3; lysate immunoprecipitated with anti-myc or anti-DDK at 4 °C overnight, protein A/G Plus-agarose; immunoblot for DDK or myc
[3] = target: glycogen synthetic kinase 3β (GSK-3β) (rat (endogenous in NRK-52E)) (UniProt P18266); experiment: co-IP; NRK-52E cells transfected with pFHL2 or empty vector pcDNA3 for 6 h; lysate precleared with normal IgG, incubated with anti-FHL2 (or anti-GSK-3β) at 4 °C overnight, protein A/G Plus-agarose 4 h; immunoblot
[4] = target: p300, myc-tagged (UniProt Q09472); experiment: co-IP; HEK293 cells co-transfected with myc-tagged p300 and DDK-tagged FHL2 or pcDNA3; lysate immunoprecipitated with anti-myc or anti-DDK at 4 °C overnight, protein A/G Plus-agarose; immunoblot for DDK or myc

binding [1]	other results	Molecule
binds	–	hypoxia inducible factor 1α (HIF-1α) (from UniProt O35800 1-825)
–	binding [2]: binds	p300, myc-tagged (from UniProt Q09472 1-2414) (enzyme)
binds	–	glycogen synthetic kinase 3β (GSK-3β) (from UniProt P18266 1-420) (enzyme)
binds	–	B1
–	binding [3]: binds	B2
–	binding [4]: binds	B3
